Laboratory results from article PMC8313409.
These are yes or no findings as the source states them, for the method shown. Binding seen in cells or lysates may run through a third protein. Some entries that bind do so weakly or less than the wild type. Where a sequence is shown, tags or fusion partners need not be part of it.

The chains behind the UniProt entries cited, without tags or fusion partners.
UniProt P63017: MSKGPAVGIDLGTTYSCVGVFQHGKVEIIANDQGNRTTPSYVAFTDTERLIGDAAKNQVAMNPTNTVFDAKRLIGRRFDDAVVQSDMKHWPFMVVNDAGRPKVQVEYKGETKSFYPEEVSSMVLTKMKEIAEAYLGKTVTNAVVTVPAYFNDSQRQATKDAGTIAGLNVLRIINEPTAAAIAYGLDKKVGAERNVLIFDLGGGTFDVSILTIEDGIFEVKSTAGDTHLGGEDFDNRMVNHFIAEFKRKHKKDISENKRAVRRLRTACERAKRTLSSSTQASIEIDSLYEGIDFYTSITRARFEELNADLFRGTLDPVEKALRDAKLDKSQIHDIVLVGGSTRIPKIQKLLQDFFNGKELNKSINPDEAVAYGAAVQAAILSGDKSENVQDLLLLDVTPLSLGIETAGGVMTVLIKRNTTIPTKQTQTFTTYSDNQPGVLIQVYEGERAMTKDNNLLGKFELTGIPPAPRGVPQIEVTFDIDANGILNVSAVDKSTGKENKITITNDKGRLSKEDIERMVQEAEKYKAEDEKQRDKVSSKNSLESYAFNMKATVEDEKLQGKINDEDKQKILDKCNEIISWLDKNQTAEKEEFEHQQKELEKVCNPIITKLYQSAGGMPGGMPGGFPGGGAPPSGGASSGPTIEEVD
UniProt P25322: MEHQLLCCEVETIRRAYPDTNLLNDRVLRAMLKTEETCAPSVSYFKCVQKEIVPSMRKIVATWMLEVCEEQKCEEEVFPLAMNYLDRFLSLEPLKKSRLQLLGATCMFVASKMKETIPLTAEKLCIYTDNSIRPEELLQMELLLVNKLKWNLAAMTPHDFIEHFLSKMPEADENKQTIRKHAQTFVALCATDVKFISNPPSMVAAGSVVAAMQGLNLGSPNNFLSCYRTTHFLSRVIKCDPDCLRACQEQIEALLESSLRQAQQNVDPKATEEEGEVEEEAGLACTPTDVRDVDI

Molecular target: Hsc70-HA (UniProt P63017)
Test: co-IP; N2A cells expressing Hsc70-HA or Hsp90-HA with cyclin D1–Flag or CDK4-Flag; lysed at 4°C in coIP buffer (50 mM Tris HCl pH 7.4, 150 mM NaCl, 1 mM EDTA, 1% Nonidet P-40, 10% glycerol); the HA-tagged protein precipitated, Flag-tagged protein detected by immunoblot

Row | binding | Molecule
1 | binds | cyclin D1–Flag (from UniProt P25322 1-295)
2 | binds | CDK4-Flag (protein, UniProt P30285 1-303) MAATRYEPVAEIGVGAYGTVYKARDPHSGHFVALKSVRVPNGGAAGGGLPVSTVREVALLRRLEAFEHPNVVRLMDVCATSRTDRDIKVTLVFEHIDQDLRTYLDKAPPPGLPVETIKDLMRQFLSGLDFLHANCIVHRDLKPENILVTSNGTVKLADFGLARIYSYQMALTPVVVTLWYRAPEVLLQSTYATPVDMWSVGCIFAEMFRRKPLFCGNSEADQLGKIFDLIGLPPEDDWPREVSLPRGAFAPRGPRPVQSVVPEMEESGAQLLLEMLTFNPHKRISAFRALQHSYLHKEESDAE
